Measurements from article PMC3445812.
Results are given in words; binding and its absence hold for the method and conditions named. Values belong to the binder of their own block, whether it stands above or below them.

What was measured:
Assay in all cases: SEC; S200 16/60 gel filtration column in 20 mM Hepes pH 7.4, 500 mM NaCl, 0.5 mM TCEP, after Ni2+ IMAC; retention volumes compared with molecular weight standards; both purified
[1] = biological target: Mitogen-activated protein kinase 13 (residues 15-359) (human) (UniProt O15264)
[2] = biological target: T1, Mitogen-activated protein kinase 3 (residues 1-379) (human), P27361; settings: remark: other sources report otherwise
T1 chain: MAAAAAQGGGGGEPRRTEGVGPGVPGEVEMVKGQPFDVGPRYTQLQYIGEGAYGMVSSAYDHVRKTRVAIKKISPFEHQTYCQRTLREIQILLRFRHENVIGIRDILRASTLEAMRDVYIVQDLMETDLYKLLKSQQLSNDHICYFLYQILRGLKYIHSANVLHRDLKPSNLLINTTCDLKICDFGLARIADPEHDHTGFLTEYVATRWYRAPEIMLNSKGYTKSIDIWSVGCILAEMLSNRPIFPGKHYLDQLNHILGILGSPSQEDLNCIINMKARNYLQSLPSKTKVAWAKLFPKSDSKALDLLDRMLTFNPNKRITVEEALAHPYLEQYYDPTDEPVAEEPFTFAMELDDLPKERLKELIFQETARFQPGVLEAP

[3] = biological target: Mitogen-activated protein kinase 9 (residues 1-380) (human) (UniProt P45984)

binding [1]: no binding
B1: Mitogen-activated protein kinase 13 (residues 15-359) (domain or fragment, UniProt O15264 15-359)
chain: NKTAWELPKTYVSPTHVGSGAYGSVCSAIDKRSGEKVAIKKLSRPFQSEIFAKRAYRELLLLKHMQHENVIGLLDVFTPASSLRNFYDFYLVMPFMQTDLQKIMGMEFSEEKIQYLVYQMLKGLKYIHSAGVVHRDLKPGNLAVNEDCELKILDFGLARHADAEMTGYVVTRWYRAPEVILSWMHYNQTVDIWSVGCIMAEMLTGKTLFKGKDYLDQLTQILKVTGVPGTEFVQKLNDKAAKSYIQSLPQTPRKDFTQLFPRASPQAADLLEKMLELDVDKRLTAAQALTHPFFEPFRDPEEETEAQQPFDDSLEHEKLTVDEWKQHIYKEIVNFSPIARKDSRR

binding [2]: no binding
B2: Mitogen-activated protein kinase 3 (residues 1-379), P27361 1-379 (enzyme)
chain: T1 chain
modifications: here or on the partner: 0-1 phosphorylations (modal value 0), sites not mapped; 0-1 phosphorylations (modal value 0), sites not mapped

binding [3]: no binding
B3: Mitogen-activated protein kinase 9 (residues 1-380) (domain or fragment, UniProt P45984 1-380)
chain: MSDSKCDSQFYSVQVADSTFTVLKRYQQLKPIGSGAQGIVCAAFDTVLGINVAVKKLSRPFQNQTHAKRAYRELVLLKCVNHKNIISLLNVFTPQKTLEEFQDVYLVMELMDANLCQVIHMELDHERMSYLLYQMLCGIKHLHSAGIIHRDLKPSNIVVKSDCTLKILDFGLARTACTNFMMTPYVVTRYYRAPEVILGMGYKENVDIWSVGCIMGELVKGCVIFQGTDHIDQWNKVIEQLGTPSAEFMKKLQPTVRNYVENRPKYPGIKFEELFPDWIFPSESERDKIKTSQARDLLSKMLVIDPDKRISVDEALRHPYITVWYDPAEAEAPPPQIYDAQLEEREHAIEEWKELIYKEVMDWEERSKNGVVKDQPSDAA
